Measured values reported in PMC12818255.
Results are given in words; binding and its absence hold for the method and conditions named. Binding seen in cells or lysates may run through a third protein. Some binding calls cover weakened binding; strength is not graded here.

Molecular target: T1, neurofascin (NFASC) (human (endogenous in sNF96.2)) (UniProt O94856)
T1 sequence: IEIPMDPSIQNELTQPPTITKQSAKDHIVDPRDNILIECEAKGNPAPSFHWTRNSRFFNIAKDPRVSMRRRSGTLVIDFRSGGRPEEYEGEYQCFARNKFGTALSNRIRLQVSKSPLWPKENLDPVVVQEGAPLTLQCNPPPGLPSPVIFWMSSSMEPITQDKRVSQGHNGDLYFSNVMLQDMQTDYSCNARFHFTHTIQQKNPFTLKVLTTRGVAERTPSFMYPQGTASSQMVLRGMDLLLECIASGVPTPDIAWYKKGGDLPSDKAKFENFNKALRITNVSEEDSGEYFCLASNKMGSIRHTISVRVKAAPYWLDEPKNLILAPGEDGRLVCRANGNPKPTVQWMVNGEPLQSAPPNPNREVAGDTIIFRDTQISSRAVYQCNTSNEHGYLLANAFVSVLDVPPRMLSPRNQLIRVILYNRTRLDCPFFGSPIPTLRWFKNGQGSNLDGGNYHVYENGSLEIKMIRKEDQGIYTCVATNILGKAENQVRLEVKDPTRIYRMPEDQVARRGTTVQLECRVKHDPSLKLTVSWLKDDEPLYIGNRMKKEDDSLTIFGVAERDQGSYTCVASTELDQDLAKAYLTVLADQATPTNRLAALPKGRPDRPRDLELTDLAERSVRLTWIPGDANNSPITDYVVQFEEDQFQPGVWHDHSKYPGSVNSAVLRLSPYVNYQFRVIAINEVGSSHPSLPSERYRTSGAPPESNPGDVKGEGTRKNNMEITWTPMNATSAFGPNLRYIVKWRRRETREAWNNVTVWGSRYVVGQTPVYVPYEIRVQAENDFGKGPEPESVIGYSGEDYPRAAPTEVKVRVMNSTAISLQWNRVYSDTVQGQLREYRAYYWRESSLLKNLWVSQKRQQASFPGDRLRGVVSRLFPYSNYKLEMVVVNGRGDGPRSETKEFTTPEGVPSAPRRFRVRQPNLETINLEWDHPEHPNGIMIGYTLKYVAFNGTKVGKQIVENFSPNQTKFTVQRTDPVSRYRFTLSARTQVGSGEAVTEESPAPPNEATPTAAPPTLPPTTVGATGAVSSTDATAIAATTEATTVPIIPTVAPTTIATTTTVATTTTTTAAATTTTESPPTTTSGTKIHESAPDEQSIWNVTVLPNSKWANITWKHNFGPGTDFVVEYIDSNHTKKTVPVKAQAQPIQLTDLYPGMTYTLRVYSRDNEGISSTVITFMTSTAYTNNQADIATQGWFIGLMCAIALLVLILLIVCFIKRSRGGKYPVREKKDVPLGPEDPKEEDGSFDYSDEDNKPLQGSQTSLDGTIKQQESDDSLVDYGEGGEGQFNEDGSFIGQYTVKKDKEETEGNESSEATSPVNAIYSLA
Experiment: co-IP; lysate of SCs (sNF96.2) in IP lysis buffer with protease and phosphatase inhibitors; 1 ug anti-NFASC antibody or IgG overnight at 4 °C; Protein A/G magnetic beads; Western blotting for CNTNAP2

B1: contactin-associated protein-like 2 (CNTNAP2) (protein, UniProt Q9UHC6 28-1331)
chain: APSTSQKCDEPLVSGLPHVAFSSSSSISGSYSPGYAKINKRGGAGGWSPSDSDHYQWLQVDFGNRKQISAIATQGRYSSSDWVTQYRMLYSDTGRNWKPYHQDGNIWAFPGNINSDGVVRHELQHPIIARYVRIVPLDWNGEGRIGLRIEVYGCSYWADVINFDGHVVLPYRFRNKKMKTLKDVIALNFKTSESEGVILHGEGQQGDYITLELKKAKLVLSLNLGSNQLGPIYGHTSVMTGSLLDDHHWHSVVIERQGRSINLTLDRSMQHFRTNGEFDYLDLDYEITFGGIPFSGKPSSSSRKNFKGCMESINYNGVNITDLARRKKLEPSNVGNLSFSCVEPYTVPVFFNATSYLEVPGRLNQDLFSVSFQFRTWNPNGLLVFSHFADNLGNVEIDLTESKVGVHINITQTKMSQIDISSGSGLNDGQWHEVRFLAKENFAILTIDGDEASAVRTNSPLQVKTGEKYFFGGFLNQMNNSSHSVLQPSFQGCMQLIQVDDQLVNLYEVAQRKPGSFANVSIDMCAIIDRCVPNHCEHGGKCSQTWDSFKCTCDETGYSGATCHNSIYEPSCEAYKHLGQTSNYYWIDPDGSGPLGPLKVYCNMTEDKVWTIVSHDLQMQTPVVGYNPEKYSVTQLVYSASMDQISAITDSAEYCEQYVSYFCKMSRLLNTPDGSPYTWWVGKANEKHYYWGGSGPGIQKCACGIERNCTDPKYYCNCDADYKQWRKDAGFLSYKDHLPVSQVVVGDTDRQGSEAKLSVGPLRCQGDRNYWNAASFPNPSSYLHFSTFQGETSADISFYFKTLTPWGVFLENMGKEDFIKLELKSATEVSFSFDVGNGPVEIVVRSPTPLNDDQWHRVTAERNVKQASLQVDRLPQQIRKAPTEGHTRLELYSQLFVGGAGGQQGFLGCIRSLRMNGVTLDLEERAKVTSGFISGCSGHCTSYGTNCENGGKCLERYHGYSCDCSNTAYDGTFCNKDVGAFFEEGMWLRYNFQAPATNARDSSSRVDNAPDQQNSHPDLAQEEIRFSFSTTKAPCILLYISSFTTDFLAVLVKPTGSLQIRYNLGGTREPYNIDVDHRNMANGQPHSVNITRHEKTIFLKLDHYPSVSYHLPSSSDTLFNSPKSLFLGKVIETGKIDQEIHKYNTPGFTGCLSRVQFNQIAPLKAALRQTNASAHVHIQGELVESNCGASPLTLSPMSSATDPWHLDHLDSASADFPYNPGQGQAIRNGVNRNSAIIGGVIAVVIFTILCTLVFLIRYMFRHKGTYHTNEAKGAESAESADAAIMNNDPNFTETIDESKKEWLI
- binding: binds
